Some entries share one result that the patent states for a list of compounds. At least one compound was matched to its structure with a doubt left.
Columns and labels:
Microsomal stability = format: in vitro ADME; settings: mouse microsomes + NADPH
Method: HPLC-MS was done on a 3200 QTRAP (Applied Biosystems) equipped with a Shimadzu (Kyoto, Japan) UFLC System. Mouse serum and harmine were purchased from Sigma-Aldrich. Pooled CD1 mouse liver (female) microsomes were purchased from XenoTech, LCC (Lenexa, Kans.) with protein concentrations of 0.5 mg/ml. HCT116 cell lysates were prepared with PhosphoSafe lysis buffer (Novagen). Protein concentration was determined by using the BCA Assay. Analysis was carried out similarly as previously described [Liu, Y.; Salvador, L. A.; Byeon, S.; Ying, Y.; Kwan, J. C.; Law, B. K.; Hong, J.; Luesch. H. J. Pharmacol. Exp. Ther. 2010, 335, 351-361].
The stability of apratoxin A, S4 (BK), S7 (BL), S8 (BM) and S9 (BN) in the presence of mouse microsomes was determined by using an adaptation of a published procedure [Ackley, D. C.; Rockich, K. T.; Baker, T. R. Optimization in Drug Discovery: In Vitro Methods (Series: Methods in Pharmacology and Toxicology) (eds Yan Z, Caldwell J W) 2004, pp 151-162, Springer, New Jersey]. In brief, microsomes were added to prewarmed phosphate buffer (100 mM, pH 7.4) at 37° C. Apratoxin A, BK, BL, BM, or BN (3 μL) were added to the microsomal preparation followed by NADPH cofactor solution (1.3 mM NADP, 3.3 mM glucose 6-phosphate, 0.4 U/mL glucose-6-phosphate dehydrogenase, 3.3 mM MgCl2). The reaction was allowed to proceed for 3 min to 3 h (7 time points) at 37° C. (thermomixer, 1050 rpm). The reaction was quenched by addition of ethyl acetate and subsequently spiked with harmine. The zero time point was defined by denaturing the microsomes with ethyl acetate before the addition of apratoxins. Incubation of apratoxins with microsomes alone was also performed following the same procedure to determine NADPH-dependent metabolism. The final concentration of the incubation mixture contained 0.5 mg/ml protein concentration and 1 μM apratoxins. […]
Calibration curves for apratoxin A, S4 (BK), S7 (BL), S8 (BM) and S9 (BN) in the presence of mouse serum, HCT116 cell lysates, and aqueous solutions were generated by least-square linear regression analysis of the analyte peak area and internal standard peak area ratio against the nominal concentration of the standard solutions. A linear regression analysis was performed, and the concentration of remaining apratoxins at each time point was determined through interpolation for plasma, cellular, and aqueous stability experiments. The amount of remaining apratoxins with microsome incubation was determined from the peak area ratio of apratoxins at tx (3 min to 3 h) and t0. All calculations were done by using Analyst 1.4.2 (Applied Biosystems) Quantitate Mode.

VEGF-A secretion = experiment: Measurement of VEGF-A production (alphaLISA) in HCT116 culture supernatants; format: cell-based, human; settings: range stated in text for S7 and S8, read-out: inhibition of VEGF-A secretion, sub-nanomolar activity
Method: Human colon adenocarcinoma HCT116 cells were purchased from ATCC (Manassas, Va.) and cultured in Dulbecco's modified Eagle's medium (Invitrogen, Carlsbad, Calif.) supplemented with 10% fetal bovine serum (HyClone, Logan, Utah) at 37° C. humidified air and 5% CO2.
HCT116 cells (1×10^4 cells per well) were seeded in 96-well plates and one day later treated with various concentrations of apratoxins or solvent control. After 12 h of incubation, culture supernatants were collected for detection of VEGF-A by using an alphaLISA kit (PerkinElmer, Waltham, Mass.) following the manufacturer's instructions. Briefly, acceptor bead and anti-VEGF antibody were incubated first with the supernatants for 60 min, donor beads were added later and incubated for another 30 min and then VEGF-A levels detected using Envision (PerkinElmer).

Structure (SMILES)	microsomal stability t1/2 (Microsomal stability) [min]	IC50 (VEGF-A secretion) [nM]
CC[C@H](C)[C@H]1C(=O)N2CCC[C@@H]2C(=O)O[C@H](C(C)(C)C)C[C@@H](C)C[C@H](O)C(C)(C)C2=N[C@@H](CCC(=O)N[C@@H](Cc3ccc(OC)cc3)C(=O)N(C)[C@@H](C)C(=O)N1C)CS2 [apratoxin S8 (BM), Apratoxin S8]	< 5	0.3 to 0.47
CC[C@H](C)[C@H]1C(=O)N2CCC[C@@H]2C(=O)O[C@H](C(C)(C)C)C[C@@H](C)C[C@H](O)CC2=N[C@@H](CCC(=O)N[C@@H](Cc3ccc(OC)cc3)C(=O)N(C)[C@@H](C)C(=O)N1C)CS2 [apratoxin S7 (BL), Apratoxin S7]	< 5	0.3 to 0.47
CC[C@H](C)[C@H]1C(=O)N2CCC[C@@H]2C(=O)O[C@H](C(C)(C)C)C[C@@H](C)C[C@H](O)[C@H](C)C2=N[C@H](CCC(=O)N[C@@H](Cc3ccc(OC)cc3)C(=O)N(C)[C@@H](C)C(=O)N1C)CS2 [apratoxin S9 (BN), Apratoxin S9]	< 5	
CC[C@H](C)[C@H]1C(=O)N2CCC[C@H]2C(=O)O[C@H](C(C)(C)C)C[C@@H](C)C[C@H](O)[C@H](C)C2=N[C@@H](CCC(=O)N[C@@H](Cc3ccc(OC)cc3)C(=O)N(C)[C@@H](C)C(=O)N1C)CS2 [apratoxin S4 (BK), Apratoxin S4]	< 5	

— patent US11718645B2, “Macrocyclic therapeutic agents, methods of manufacture, and methods of treatment” (University of Florida Research Foundation, Incorporated, priority 2014, dated 2023)
